PubChem BioAssay AID1508597, Cure First – 2020
This is one part, drawn at random, of about 2,100 deposited reagents. 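Calls flag viability under 80% in either arm, not effects specific to rucaparib; the reference for percent is not stated.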 Not given: the 100% reference.

Assay: 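Survival screen with siRNA in ovarian cancer cells derived from patients, with or without rucaparib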 (primary screen)
Cell system: human ovarian carcinoma lines grown from tumours: OCI-P5x (papillary serous) and OCI-C5x (clear cell)
Reagents: siRNA pool against human genes, 1.25 pmol siRNA per well
Timing: 72 h or 96 h, depending on the cell culture
Challenge: rucaparib 20 µM (about IC30) or vehicle, present until read-out
Read-out: 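Luminescent ATP-based viability assay read 72 or 96 h after transfection, depending on culture, given as normalised percent viability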
Direction: viability, normalised: higher = more viable cells remaining
Active means: 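Active when normalised viability falls below 80 percent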
Meaning of the calls: active = viability under 80%; inactive = viability 80% or more

How did the screen score RPIA (GeneID 22934), rucaparib or vehicle Rucaparib, cell line OCI-C5x (clear cell), technical replicate 1?
viability, normalised (%): 47.1; call: active

For RPIA (GeneID 22934), rucaparib or vehicle Rucaparib, cell line OCI-C5x (clear cell), technical replicate 2, what was measured?
viability, normalised (%): 54.7; call: active

With RPIA (GeneID 22934), rucaparib or vehicle Rucaparib, cell line OCI-C5x (clear cell), technical replicate 3, what was measured?
viability, normalised (%): 55.7; call: active

What is on record for RPIA (GeneID 22934), rucaparib or vehicle Rucaparib, cell line OCI-P5x (serous), technical replicate 1?
viability, normalised (%): 81.7; call: inactive

What did the screen give for RPIA (GeneID 22934), rucaparib or vehicle Rucaparib, cell line OCI-P5x (serous), technical replicate 2?
viability, normalised (%): 95.6; call: inactive

What is on record for RPIA (GeneID 22934), rucaparib or vehicle Rucaparib, cell line OCI-P5x (serous), technical replicate 3?
viability, normalised (%): 83.9; call: inactive

For RPIA (GeneID 22934), rucaparib or vehicle Vehicle, cell line OCI-C5x (clear cell), technical replicate 1, what was measured?
viability, normalised (%): 37.6; call: active

With RPIA (GeneID 22934), rucaparib or vehicle Vehicle, cell line OCI-C5x (clear cell), technical replicate 2, how do the results read?
viability, normalised (%): 38.8; call: active

For RPIA (GeneID 22934), rucaparib or vehicle Vehicle, cell line OCI-C5x (clear cell), technical replicate 3, what does the deposit list?
viability, normalised (%): 34.5; call: active

With RPIA (GeneID 22934), rucaparib or vehicle Vehicle, cell line OCI-P5x (serous), technical replicate 1, what does the deposit list?
viability, normalised (%): 70.6; call: active

Which result is listed for RPIA (GeneID 22934), rucaparib or vehicle Vehicle, cell line OCI-P5x (serous), technical replicate 2?
viability, normalised (%): 77.4; call: active

How did the screen score RPIA (GeneID 22934), rucaparib or vehicle Vehicle, cell line OCI-P5x (serous), technical replicate 3?
viability, normalised (%): 59.4; call: active

What is on record for OARD1 (GeneID 221443), rucaparib or vehicle Rucaparib, cell line OCI-C5x (clear cell), technical replicate 1?
viability, normalised (%): 69.1; call: active

What is on record for OARD1 (GeneID 221443), rucaparib or vehicle Rucaparib, cell line OCI-C5x (clear cell), technical replicate 2?
viability, normalised (%): 62.3; call: active

What did the screen give for OARD1 (GeneID 221443), rucaparib or vehicle Rucaparib, cell line OCI-C5x (clear cell), technical replicate 3?
viability, normalised (%): 54.5; call: active

How did the screen score OARD1 (GeneID 221443), rucaparib or vehicle Rucaparib, cell line OCI-P5x (serous), technical replicate 1?
viability, normalised (%): 55.3; call: active

For OARD1 (GeneID 221443), rucaparib or vehicle Rucaparib, cell line OCI-P5x (serous), technical replicate 2, what was measured?
viability, normalised (%): 84.8; call: inactive

How did the screen score OARD1 (GeneID 221443), rucaparib or vehicle Rucaparib, cell line OCI-P5x (serous), technical replicate 3?
viability, normalised (%): 72.5; call: active

With OARD1 (GeneID 221443), rucaparib or vehicle Vehicle, cell line OCI-C5x (clear cell), technical replicate 1, what does the deposit list?
viability, normalised (%): 25.6; call: active

With OARD1 (GeneID 221443), rucaparib or vehicle Vehicle, cell line OCI-C5x (clear cell), technical replicate 2, what was measured?
viability, normalised (%): 41.4; call: active

Which result is listed for OARD1 (GeneID 221443), rucaparib or vehicle Vehicle, cell line OCI-C5x (clear cell), technical replicate 3?
viability, normalised (%): 41.6; call: active

What is on record for OARD1 (GeneID 221443), rucaparib or vehicle Vehicle, cell line OCI-P5x (serous), technical replicate 1?
viability, normalised (%): 50.3; call: active

How did the screen score OARD1 (GeneID 221443), rucaparib or vehicle Vehicle, cell line OCI-P5x (serous), technical replicate 2?
viability, normalised (%): 76.3; call: active

For OARD1 (GeneID 221443), rucaparib or vehicle Vehicle, cell line OCI-P5x (serous), technical replicate 3, what does the deposit list?
viability, normalised (%): 44; call: active

2 successive reagents from above, for reference:
RPIA (GeneID 22934), rucaparib or vehicle Rucaparib, cell line OCI-P5x (serous), technical replicate 3 — viability, normalised (%): 83.9; call: inactive
RPIA (GeneID 22934), rucaparib or vehicle Vehicle, cell line OCI-C5x (clear cell), technical replicate 1 — viability, normalised (%): 37.6; call: active
